Experimental data published in PubChem BioAssay (EPA / NIEHS).
Several values for one entry are separate records, joined by “and”; a condition that tells them apart may be missing. Equal values may be shown once. Inconclusive means that the source gave no clear call. Such entries were picked first, then a sample of the others. Where the call is inconclusive, the potency comes from a doubtful curve fit. Activity calls are given as the source filed them. Rule for the calls: active = hit-call score of the fitted dose curve at least 0.9, where 1 is the maximum; inconclusive = response in the unintended direction; inactive = score below 0.9.

The chains behind the UniProt entries cited, without tags or fusion partners.
UniProt P43354, whole entry, looked up: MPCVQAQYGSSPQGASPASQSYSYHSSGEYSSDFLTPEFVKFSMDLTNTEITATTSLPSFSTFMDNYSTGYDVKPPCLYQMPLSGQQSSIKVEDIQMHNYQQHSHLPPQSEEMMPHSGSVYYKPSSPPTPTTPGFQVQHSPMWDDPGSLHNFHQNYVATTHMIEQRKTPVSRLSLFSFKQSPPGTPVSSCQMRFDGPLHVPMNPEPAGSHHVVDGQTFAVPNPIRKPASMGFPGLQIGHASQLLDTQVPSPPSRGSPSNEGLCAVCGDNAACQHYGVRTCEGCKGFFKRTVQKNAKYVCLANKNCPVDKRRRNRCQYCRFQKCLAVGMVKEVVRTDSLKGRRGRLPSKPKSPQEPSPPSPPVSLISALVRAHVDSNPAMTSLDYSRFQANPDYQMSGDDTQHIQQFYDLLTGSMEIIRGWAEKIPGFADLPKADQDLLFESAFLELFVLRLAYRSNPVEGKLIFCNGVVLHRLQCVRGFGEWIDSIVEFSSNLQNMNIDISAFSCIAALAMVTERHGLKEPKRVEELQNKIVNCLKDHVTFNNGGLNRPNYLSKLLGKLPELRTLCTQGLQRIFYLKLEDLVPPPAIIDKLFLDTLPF

target: Nuclear receptor subfamily 4 group A member 2 (Homo sapiens) (UniProt P43354); assay: ATG_NURR1_TRANS: Attagene TRANS-FACTORIAL HepG2 Assay for human Nuclear Receptor Related Protein 1 (NURR1) (AID 2282985); details: HepG2 Attagene TRANS reporter, mRNA readout
Experimental: ATG_TRANS is a cell-based, multiplexed-readout assay that uses HepG2, a human liver cell line, with measurements taken at 24 hours after chemical dosing in a 24-well plate.ATG_NURR1_TRANS is one of 30 assay component(s) measured or calculated from the ATG_TRANS assay. It is designed to make measurements of mRNA induction, a form of inducible reporter, as detected with fluorescence intensity signals by Reverse transcription polymerase chain reaction (RT-PCR) and Capillary electrophoresis technology.Data from the assay component ATG_NURR1_TRANS was analyzed into 1 assay endpoint. This assay endpoint, ATG_NURR1_TRANS, was analyzed in the positive analysis fitting direction relative to DMSO as the negative control and baseline of activity. Using a type of inducible reporter, measures of mRNA for gain-of-signal activity can be used to understand the reporter gene at the transcription factor-level as they relate to the gene NR4A2. Furthermore, this assay endpoint can be referred to as a primary readout, because this assay has produced multiple assay endpoints where this one serves a reporter gene function. To generalize the intended target to other relatable targets, this assay endpoint is annotated to the nuclear receptor intended target family, where the subfamily is orphan.
Human liver HepG2 cells are transiently transfected with multiple reporter transcription units (MRTUs) in 6-well plates using FuGene 6 reagent (Roche; 3 ml FuGene/1 mg DNA). The MRTU constructs are regulated by a cis-regulating element (promoter). […] A major difference between the CIS and TRANS system is that in CIS activities of endogenous TFs are measured, whereas the TRANS assay evaluates changes in activities of exogenous, chimeric NR-Gal4 proteins. […] At the end of 24 hour incubation, total RNA was isolated using TriZol reagent (Invitrogen). The isolated RNA is then reverse-transcribed using oligo(dT) primer and Mo-MLV reverse transcriptase (Invitrogen) with DNAse I (Ambion) treatment for 30 min. The one-tenth of the produced cDNA was amplified by PCR using Taq DNA polymerase (Invitrogen) and two reporter sequence-specific primers. The PCR products were fluorescently labeled by primer extension with 6-arboxyfluorescein (6-FAM) 5'-labeled reporter sequence-specific primer (2 min at 95 C, 20 s at 68 C and 10 min at 72 C) and these products were digested with 5U of HpaI (New England Biolabs) for 2h at 37 C. The fragments were purified using Qiaquick PCR columns (Qiagen), analyzed on an ABI 3130xL genetic analyzer (Applied Biosystems) with peak positions identified by using a set of X-rhodamine (ROX)-labeled MapMarker1000 molecular weight standards (BioVentures). The raw capillary electrophoresis data was processed using Attagraph software (Attagene).

| SMILES | outcome | AC50 |
| --- | --- | --- |
| N#CN=C1SCCN1Cc1ccc(Cl)nc1 | inactive | – |
| O=[N+]([O-])c1c2ccccc2cc2ccccc12 | – | inconclusive: 99 µM |
| CNC(=O)/C=C(\C)OP(=O)(OC)OC | – | inconclusive: 3.08 µM |
| CN(N=O)c1ccccc1 | – | inconclusive: 0.0823 µM |
| N#CC(c1ccccc1)c1ccccc1 | inactive | – |
| c1ccc(C2CO2)cc1 (stereo not given) | inactive | – |
| NC(=S)Nc1ccccc1 | – | inconclusive: 2.53 µM |
| ClC1C(Cl)C(Cl)C(Cl)C(Cl)C1Cl (stereo not given) | inactive | – |
| CC(C)=CC1C(C(=O)OCc2coc(Cc3ccccc3)c2)C1(C)C (stereo not given) | – | active: 33.9 µM |
| Clc1cccc(C(Cl)(Cl)Cl)n1 | – | inconclusive: 0.0397 µM |
| OCC1CO1 (stereo not given) | – | inconclusive: 100 µM |
| O=P(OCCCl)(OCCCl)OCCCl | – | inconclusive: 100 µM |
| COC[C@H](C)N(C(=O)CCl)c1c(C)csc1C | inactive | – |
| COP(=S)(OC)SCN1C(=O)c2ccccc2C1=O | inactive | – |
| CSC(=O)c1c(C(F)F)nc(C(F)(F)F)c(C(=O)SC)c1CC(C)C | – | active: 13.5 µM |

| SMILES | outcome | AC50 |
| --- | --- | --- |
| CCC[N+](=O)[O-] | – | inconclusive: 100 µM |
| O=c1ccc(=O)[nH][nH]1 | inactive | – |
| CC(C)[C@H](C(=O)O[C@H](C#N)c1cccc(Oc2ccccc2)c1)c1ccc(Cl)cc1 | – | inconclusive: 50 µM |
| c1ccc2c(c1)Nc1ccccc1S2 | – | inconclusive: 25 µM |
| C=Cc1cccc(CCl)c1 | inactive | – |
| CCN(CC)CCO | inactive | – |
| Cc1cccc(C)c1N | – | inconclusive: 8.39 µM |
| O=C(CBr)OCc1ccccc1 | – | inconclusive: 100 µM |
| CC(C)C1(C)N=C(c2ncccc2C(=O)O)NC1=O (stereo not given) | – | inconclusive: 50 µM |
| Cc1ccc2nc3sc(=O)sc3nc2c1 | inactive | – |
| COc1ccc([N+](=O)[O-])cc1O | – | inconclusive: 13.8 µM |
| CC1CCCC1.[C-]#[O+].[C-]#[O+].[C-]#[O+].[Mn] | – | inconclusive: 12.2 µM |
| CC1CC(=O)O1 (stereo not given) | inactive | – |
| O=[N+]([O-])c1cc(C(F)(F)F)c(Cl)c([N+](=O)[O-])c1Cl | – | inconclusive: 60.3 µM |
| COS(=O)(=O)c1ccc(C)cc1 | inactive | – |
| CCCCOC(C)=O | – | inconclusive: 100 µM and inconclusive: 14.3 nM |
| CC(C)N(C(=O)SCC(Cl)=C(Cl)Cl)C(C)C | inactive | – |
| Clc1ccc(C(c2ccc(Cl)cc2)C(Cl)(Cl)Cl)cc1 | inactive | – |

A stretch from further up, for reference:

| SMILES | outcome | AC50 |
| --- | --- | --- |
| CC(C)C1(C)N=C(c2ncccc2C(=O)O)NC1=O (stereo not given) | – | inconclusive: 50 µM |
| Cc1ccc2nc3sc(=O)sc3nc2c1 | inactive | – |
